# Assay results published in US7846971B2, “N-halogenated amino acids, N,N-dihalogenated amino acids and derivatives; compositions and methods of using them” (Novabay Pharmaceuticals, Inc., priority 2005, dated 2010).
# Test system: Primary Human Skin Fibroblasts
# Assay: XTT cytotoxicity assay on primary human skin fibroblasts
# Format: cell-based
# Method: Cytotoxicity was assessed by a colorimetric assay system, initially described by Scudiero et al., using 3′-(phenylamino-carbonyl)-3,4-tetrazolium-bis (4-methoxy-6-nitro) benzene sulfonic acid hydrate (XTT), ProCheck™ cell viability assay (Evaluation of a soluble tetrazolium/formazan assay for cell growth and drug sensitivity in culture using human and other tumor cell lines described by Scudiero D A, Shoemaker R A H, Paul K D, Monks A, Tierney S, Nofziger T H, Currens M J, Seniff D, Boyd M R. Cancer Res. 1988 Septmeber 1;48(17):4827-33). Similar approaches for determining the cell viability are used by other investigators. Three cell types were used: mouse lung epithelial cells (L929), primary human skin fibroblast and primary human keratinocyte cells cultured in Dulbecco Modified Eagle's Medium and Keratinocyte defined medium with corresponding growth factors plus antibiotics. Cells were trypsinized and counted under the microscope and seeded at 1000-to-2000 cells per well of a flat-bottom 96-well plate. Cells were allowed to grow over-night at 37° C. Next day, tissue culture media was removed and cells were rinsed with fresh media 1× and then left in 50 μL of tissue culture media. […] Absorbance was read at 450 nm with reference wavelength at 750 nm using Molecular Device ThermoMax Plate reader, blanking the plate on the medium-only assay blank wells. […]
smiles,measurement,setting,value
"O=S(=O)(O)CCN(Cl)Cl [NNDCT, N,N-dichlorotaurine]",range of cell toxicity relative to range of antimicrobial activity,"0.9% saline, pH 3.5, toxicity in the mM range",1000 fold
same,"therapeutic index (TI), IC50 over MBC",Table 2,"about 5,000"
